Measured values reported in article PMC12120717.
These are yes or no findings as the source states them, for the method shown. Binding seen in cells or lysates may run through a third protein. Some binding calls cover weakened binding; strength is not graded here.

Target: T1, ubiquitin‐like protein with plant homeodomain and ring finger domains 1 (UHRF1) (human) (UniProt Q96T88)
T1 sequence: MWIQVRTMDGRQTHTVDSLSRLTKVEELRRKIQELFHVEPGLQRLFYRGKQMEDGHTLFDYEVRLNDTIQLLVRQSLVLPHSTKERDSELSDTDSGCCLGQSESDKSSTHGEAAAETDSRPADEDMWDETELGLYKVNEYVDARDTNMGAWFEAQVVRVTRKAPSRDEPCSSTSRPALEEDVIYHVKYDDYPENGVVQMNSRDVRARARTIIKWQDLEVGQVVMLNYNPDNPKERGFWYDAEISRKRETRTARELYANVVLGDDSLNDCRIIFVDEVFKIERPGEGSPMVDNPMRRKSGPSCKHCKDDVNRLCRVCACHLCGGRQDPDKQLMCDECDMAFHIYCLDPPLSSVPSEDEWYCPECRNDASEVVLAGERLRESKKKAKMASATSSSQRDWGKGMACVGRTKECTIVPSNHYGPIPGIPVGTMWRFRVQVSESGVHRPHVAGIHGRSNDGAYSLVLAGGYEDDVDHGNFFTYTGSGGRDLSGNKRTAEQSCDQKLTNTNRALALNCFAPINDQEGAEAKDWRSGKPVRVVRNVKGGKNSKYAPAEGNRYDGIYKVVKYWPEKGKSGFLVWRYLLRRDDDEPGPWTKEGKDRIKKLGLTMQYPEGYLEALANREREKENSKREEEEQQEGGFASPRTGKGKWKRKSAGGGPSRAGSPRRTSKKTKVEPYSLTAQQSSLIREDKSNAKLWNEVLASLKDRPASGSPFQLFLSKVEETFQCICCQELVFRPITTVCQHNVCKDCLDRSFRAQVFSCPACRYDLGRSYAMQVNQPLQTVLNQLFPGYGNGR
Assay: co-IP; immunoprecipitation by a previously described protocol (ref. 47); cells, precipitating antibody and bait not stated; for DNMT1/DNMT3A also after UHRF1 knockdown

B1: LHX1 (protein, UniProt P48742 1-406)
chain: MVHCAGCKRPILDRFLLNVLDRAWHVKCVQCCECKCNLTEKCFSREGKLYCKNDFFRCFGTKCAGCAQGISPSDLVRRARSKVFHLNCFTCMMCNKQLSTGEELYIIDENKFVCKEDYLSNSSVAKENSLHSATTGSDPSLSPDSQDPSQDDAKDSESANVSDKEAGSNENDDQNLGAKRRGPRTTIKAKQLETLKAAFAATPKPTRHIREQLAQETGLNMRVIQVWFQNRRSKERRMKQLSALGARRHAFFRSPRRMRPLVDRLEPGELIPNGPFSFYGDYQSEYYGPGGNYDFFPQGPPSSQAQTPVDLPFVPSSGPSGTPLGGLEHPLPGHHPSSEAQRFTDILAHPPGDSPSPEPSLPGPLHSMSAEVFGPSPPFSSLSVNGGASYGNHLSHPPEMNEAAVW
- binding: binds
